Measured values as given in the supplement of paper PMC10849652.
Some of the results follow.

The chains behind the UniProt entries cited, without tags or fusion partners. Where a name states a change or a piece, a line headed by the entry shows the natural chain unless it says otherwise.
UniProt Q6FI81: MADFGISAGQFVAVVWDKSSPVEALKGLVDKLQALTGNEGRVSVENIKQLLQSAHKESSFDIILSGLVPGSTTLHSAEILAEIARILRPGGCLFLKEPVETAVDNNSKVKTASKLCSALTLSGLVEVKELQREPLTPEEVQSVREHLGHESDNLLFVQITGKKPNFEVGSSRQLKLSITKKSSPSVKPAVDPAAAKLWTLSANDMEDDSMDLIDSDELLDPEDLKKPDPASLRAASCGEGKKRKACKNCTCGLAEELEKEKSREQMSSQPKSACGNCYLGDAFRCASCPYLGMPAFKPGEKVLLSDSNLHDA
UniProt Q16740, whole entry, looked up: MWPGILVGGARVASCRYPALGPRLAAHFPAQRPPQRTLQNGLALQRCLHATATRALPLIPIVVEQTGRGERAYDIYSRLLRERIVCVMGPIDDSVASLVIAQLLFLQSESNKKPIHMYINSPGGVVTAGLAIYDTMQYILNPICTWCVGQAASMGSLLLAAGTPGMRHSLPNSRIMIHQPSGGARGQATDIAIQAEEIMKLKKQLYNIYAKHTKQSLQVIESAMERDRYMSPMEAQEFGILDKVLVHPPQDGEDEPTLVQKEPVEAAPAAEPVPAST
UniProt Q7Z460: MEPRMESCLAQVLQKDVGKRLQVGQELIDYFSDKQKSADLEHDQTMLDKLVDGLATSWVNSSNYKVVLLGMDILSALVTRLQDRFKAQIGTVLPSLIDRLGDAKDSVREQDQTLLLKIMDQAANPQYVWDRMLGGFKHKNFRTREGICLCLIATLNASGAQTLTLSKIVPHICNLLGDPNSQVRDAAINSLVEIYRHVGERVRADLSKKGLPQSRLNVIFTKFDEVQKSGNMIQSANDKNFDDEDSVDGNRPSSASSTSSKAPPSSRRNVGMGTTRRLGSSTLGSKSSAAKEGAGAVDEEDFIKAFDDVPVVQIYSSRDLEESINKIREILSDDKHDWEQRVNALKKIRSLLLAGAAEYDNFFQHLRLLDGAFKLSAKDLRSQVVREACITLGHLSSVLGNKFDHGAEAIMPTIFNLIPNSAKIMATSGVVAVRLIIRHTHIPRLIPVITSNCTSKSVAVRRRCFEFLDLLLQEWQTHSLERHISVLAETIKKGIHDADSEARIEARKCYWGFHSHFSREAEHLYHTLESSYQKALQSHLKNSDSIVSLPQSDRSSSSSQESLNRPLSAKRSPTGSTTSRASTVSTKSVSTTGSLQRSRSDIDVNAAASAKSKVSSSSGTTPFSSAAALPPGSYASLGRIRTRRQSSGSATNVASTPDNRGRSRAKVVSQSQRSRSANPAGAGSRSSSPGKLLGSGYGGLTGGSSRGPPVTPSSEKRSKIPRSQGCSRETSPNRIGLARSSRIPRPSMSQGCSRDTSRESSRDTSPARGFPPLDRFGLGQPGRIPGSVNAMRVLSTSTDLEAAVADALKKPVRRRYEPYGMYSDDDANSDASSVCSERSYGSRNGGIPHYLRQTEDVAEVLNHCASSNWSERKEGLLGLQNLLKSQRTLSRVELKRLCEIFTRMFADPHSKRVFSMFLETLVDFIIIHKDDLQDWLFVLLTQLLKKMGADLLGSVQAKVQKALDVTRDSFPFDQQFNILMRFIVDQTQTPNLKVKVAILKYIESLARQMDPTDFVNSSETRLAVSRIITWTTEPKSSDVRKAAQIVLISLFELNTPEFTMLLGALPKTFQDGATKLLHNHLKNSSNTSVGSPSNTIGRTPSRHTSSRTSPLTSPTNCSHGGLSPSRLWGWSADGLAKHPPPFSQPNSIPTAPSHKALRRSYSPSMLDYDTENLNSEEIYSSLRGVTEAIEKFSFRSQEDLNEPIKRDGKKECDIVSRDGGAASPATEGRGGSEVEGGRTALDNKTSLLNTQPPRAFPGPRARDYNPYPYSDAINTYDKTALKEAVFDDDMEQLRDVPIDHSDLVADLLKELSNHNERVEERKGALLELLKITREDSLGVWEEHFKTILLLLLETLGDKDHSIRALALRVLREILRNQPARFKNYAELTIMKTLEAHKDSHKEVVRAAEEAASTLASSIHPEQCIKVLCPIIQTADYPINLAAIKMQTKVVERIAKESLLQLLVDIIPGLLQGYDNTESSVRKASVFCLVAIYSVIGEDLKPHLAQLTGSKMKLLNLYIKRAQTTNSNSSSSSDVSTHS
UniProt Q8WYQ3: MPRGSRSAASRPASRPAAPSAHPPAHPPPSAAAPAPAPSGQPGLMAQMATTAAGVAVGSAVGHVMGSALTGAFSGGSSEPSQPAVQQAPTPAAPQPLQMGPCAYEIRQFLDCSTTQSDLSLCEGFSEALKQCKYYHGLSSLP
UniProt Q8N0X4: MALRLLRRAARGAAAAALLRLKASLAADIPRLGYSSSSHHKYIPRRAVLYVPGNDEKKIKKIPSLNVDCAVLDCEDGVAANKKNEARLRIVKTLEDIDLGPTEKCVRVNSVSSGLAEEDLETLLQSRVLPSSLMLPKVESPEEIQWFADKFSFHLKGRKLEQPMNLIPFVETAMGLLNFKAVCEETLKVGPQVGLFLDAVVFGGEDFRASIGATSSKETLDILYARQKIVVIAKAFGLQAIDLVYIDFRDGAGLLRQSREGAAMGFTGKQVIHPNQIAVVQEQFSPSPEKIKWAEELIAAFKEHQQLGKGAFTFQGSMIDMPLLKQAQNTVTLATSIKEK
UniProt Q9NZZ3: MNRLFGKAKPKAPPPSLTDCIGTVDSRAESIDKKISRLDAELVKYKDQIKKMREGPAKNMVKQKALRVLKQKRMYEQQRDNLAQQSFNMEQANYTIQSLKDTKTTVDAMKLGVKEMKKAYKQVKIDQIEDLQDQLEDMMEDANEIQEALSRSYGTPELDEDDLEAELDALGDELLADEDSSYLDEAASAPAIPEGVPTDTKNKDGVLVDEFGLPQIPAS
UniProt Q8N2M8: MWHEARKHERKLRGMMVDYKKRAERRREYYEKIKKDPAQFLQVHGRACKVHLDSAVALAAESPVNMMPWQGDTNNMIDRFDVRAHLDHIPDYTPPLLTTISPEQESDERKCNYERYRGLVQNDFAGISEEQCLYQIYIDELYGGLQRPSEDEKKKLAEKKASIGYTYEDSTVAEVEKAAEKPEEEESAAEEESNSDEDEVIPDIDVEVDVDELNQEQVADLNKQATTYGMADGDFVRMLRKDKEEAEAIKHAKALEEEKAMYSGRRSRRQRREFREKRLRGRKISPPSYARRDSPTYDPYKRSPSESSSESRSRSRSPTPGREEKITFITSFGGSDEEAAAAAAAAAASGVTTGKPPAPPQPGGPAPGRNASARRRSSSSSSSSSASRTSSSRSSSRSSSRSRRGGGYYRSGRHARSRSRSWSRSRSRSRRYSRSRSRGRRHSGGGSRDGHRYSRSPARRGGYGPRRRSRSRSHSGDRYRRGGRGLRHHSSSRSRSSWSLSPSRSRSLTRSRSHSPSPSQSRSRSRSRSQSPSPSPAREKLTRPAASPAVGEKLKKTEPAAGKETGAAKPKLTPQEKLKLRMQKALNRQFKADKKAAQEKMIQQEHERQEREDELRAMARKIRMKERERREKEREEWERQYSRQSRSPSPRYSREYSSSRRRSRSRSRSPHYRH
UniProt O15247: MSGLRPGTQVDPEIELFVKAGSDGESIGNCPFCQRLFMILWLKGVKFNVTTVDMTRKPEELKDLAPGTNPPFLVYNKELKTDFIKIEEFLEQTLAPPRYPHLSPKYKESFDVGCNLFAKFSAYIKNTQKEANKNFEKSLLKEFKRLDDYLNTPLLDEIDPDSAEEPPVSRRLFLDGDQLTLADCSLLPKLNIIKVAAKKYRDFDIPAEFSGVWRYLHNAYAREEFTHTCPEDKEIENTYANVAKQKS
UniProt Q9UKJ5: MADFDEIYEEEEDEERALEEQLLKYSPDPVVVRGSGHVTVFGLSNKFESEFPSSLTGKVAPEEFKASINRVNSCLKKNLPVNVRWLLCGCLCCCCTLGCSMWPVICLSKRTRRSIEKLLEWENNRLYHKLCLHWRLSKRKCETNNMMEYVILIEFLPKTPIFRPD
UniProt Q9Y696: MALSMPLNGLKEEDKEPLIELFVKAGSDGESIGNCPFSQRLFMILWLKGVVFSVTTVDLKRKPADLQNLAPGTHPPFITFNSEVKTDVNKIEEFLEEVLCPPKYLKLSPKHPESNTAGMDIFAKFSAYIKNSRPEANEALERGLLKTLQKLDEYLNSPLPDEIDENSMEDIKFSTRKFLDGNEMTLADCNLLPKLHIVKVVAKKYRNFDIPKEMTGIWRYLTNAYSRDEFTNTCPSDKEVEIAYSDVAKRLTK
UniProt P12277: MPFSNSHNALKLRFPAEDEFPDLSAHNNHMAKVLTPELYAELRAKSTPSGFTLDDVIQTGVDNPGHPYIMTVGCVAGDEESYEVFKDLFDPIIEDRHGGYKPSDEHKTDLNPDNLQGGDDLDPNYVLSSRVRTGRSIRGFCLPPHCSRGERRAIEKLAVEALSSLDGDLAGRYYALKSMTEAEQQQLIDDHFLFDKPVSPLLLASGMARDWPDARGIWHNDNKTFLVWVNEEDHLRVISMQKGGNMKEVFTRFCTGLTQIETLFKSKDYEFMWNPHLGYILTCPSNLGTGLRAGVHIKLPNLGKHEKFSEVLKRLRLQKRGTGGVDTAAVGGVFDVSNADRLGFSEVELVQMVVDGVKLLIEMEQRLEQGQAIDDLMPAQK
UniProt P09496: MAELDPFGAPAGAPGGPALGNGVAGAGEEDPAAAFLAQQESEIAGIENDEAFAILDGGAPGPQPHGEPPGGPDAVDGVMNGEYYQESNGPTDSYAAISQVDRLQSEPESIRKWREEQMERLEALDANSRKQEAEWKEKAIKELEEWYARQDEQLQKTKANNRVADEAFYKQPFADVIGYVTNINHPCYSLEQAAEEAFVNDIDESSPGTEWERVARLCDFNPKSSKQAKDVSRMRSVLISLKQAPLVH
UniProt P62633: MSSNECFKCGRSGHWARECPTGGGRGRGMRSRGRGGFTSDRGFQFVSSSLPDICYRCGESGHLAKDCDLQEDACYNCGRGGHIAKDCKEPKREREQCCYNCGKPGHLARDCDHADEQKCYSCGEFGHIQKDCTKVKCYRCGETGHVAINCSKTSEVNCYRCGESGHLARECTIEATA
UniProt Q9Y259: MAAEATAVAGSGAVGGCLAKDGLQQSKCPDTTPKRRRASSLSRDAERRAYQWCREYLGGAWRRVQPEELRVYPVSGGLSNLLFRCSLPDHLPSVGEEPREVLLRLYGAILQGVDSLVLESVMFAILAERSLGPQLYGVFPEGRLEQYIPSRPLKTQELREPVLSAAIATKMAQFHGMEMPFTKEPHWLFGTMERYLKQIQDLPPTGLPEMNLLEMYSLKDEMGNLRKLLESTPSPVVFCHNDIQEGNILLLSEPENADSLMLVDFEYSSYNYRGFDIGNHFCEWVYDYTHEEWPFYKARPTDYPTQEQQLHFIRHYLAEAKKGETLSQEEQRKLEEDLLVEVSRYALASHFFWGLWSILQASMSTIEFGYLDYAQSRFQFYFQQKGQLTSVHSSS
UniProt P61024, whole entry, looked up: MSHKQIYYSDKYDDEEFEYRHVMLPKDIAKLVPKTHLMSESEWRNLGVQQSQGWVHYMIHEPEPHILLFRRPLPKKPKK
UniProt Q2KHT3: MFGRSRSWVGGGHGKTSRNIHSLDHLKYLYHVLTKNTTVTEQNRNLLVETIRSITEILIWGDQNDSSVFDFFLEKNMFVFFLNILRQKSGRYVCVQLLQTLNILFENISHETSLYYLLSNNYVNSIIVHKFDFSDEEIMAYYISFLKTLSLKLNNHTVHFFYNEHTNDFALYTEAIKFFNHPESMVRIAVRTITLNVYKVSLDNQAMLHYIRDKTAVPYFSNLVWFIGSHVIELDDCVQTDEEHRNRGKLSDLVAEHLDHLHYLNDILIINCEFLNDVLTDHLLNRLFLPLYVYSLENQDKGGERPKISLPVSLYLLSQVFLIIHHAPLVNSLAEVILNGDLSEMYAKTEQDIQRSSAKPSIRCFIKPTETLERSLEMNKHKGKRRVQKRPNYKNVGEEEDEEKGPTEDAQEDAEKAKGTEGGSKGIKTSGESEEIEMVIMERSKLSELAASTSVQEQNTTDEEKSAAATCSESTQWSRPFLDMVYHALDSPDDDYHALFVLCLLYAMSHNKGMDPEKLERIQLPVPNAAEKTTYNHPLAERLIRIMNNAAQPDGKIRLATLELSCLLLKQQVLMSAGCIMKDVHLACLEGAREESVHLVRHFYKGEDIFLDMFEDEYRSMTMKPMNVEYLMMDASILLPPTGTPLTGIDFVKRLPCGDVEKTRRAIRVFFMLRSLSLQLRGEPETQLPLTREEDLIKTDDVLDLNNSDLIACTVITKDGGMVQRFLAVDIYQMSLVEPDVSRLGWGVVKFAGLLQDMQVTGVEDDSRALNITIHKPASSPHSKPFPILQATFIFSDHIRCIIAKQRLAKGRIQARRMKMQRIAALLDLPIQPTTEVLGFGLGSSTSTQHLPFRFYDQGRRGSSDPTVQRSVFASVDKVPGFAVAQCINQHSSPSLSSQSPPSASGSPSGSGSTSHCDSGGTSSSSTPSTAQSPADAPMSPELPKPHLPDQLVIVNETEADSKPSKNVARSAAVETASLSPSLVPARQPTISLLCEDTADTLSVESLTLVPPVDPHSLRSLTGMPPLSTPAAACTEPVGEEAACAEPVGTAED

How the values were obtained:
Experiment in all cases: log2 fold change, soluble protein after heating vs DMSO (PISA); higher = thermal stabilisation; K562 lysate, 10 uM; active = over 0.2 and 3.5 SD of the protein, either way, in both replicates (recomputed)
[1] = compound: CCCS(=O)(=O)Nc1ccc(F)c(C(=O)c2c[nH]c3ncc(-c4ccc(Cl)cc4)cc23)c1F [vemurafenib]
Procedure, shortened: (§1)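 K562 pellets were dounce-homogenised in PBS pH 7.4 containing 1 mM MgCl2, and the crude extract, at 1 mg/mL protein, was exposed to 10 μM compound for 30 min. Aliquots were heated for 3 min across 48°C-58°C, pooled, brought to 0.5% NP-40 at 4°C and spun at 21,000xg for 90 min, with the supernatant taken as soluble protein. TMTpro 16plex LC-MS/MS with equalised channel sums quantified that protein. Values are log-two fold changes in thermal stability relative to solvent controls, taken from duplicates.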

[2] = compound: CCCS(=O)(=O)Nc1ccc(F)c(C(=O)c2c[nH]c3ncc(Cl)cc23)c1F
Procedure, shortened: as §1

[3] = compound: CCN(CCCOc1ccc2c(Nc3cc(CC(=O)Nc4cccc(F)c4)[nH]n3)ncnc2c1)CCOP(=O)(O)O [barasertib]
Procedure, shortened: as §1

[4] = compound: CC[C@@H]1C(=O)N(C)c2cnc(Nc3ccc(C(=O)NC4CCN(C)CC4)cc3OC)nc2N1C1CCCC1
Procedure, shortened: as §1

[5] = compound: CC[C@@H]1C(=O)N(C)c2cnc(Nc3ccc(C(=O)N[C@H]4CC[C@H](N5CCN(CC6CC6)CC5)CC4)cc3OC)nc2N1C(C)C [volasertib]
Procedure, shortened: as §1

[6] = compound: CCn1c(C(=O)N(C2CC2)C2CC2)cc2c3c(ncn3C)c(Nc3cc(C)n(C)n3)nc21
Procedure, shortened: as §1

[7] = compound: CCn1cc(-c2ccnc3[nH]c(-c4cccc(CN(C)C)c4)cc23)c(-c2ccc(NC(=O)N(C)C)cc2)n1
Procedure, shortened: as §1

[8] = compound: CN1CCC(CNc2ccc3ncc(-c4cccc(OC(F)(F)F)c4)n3n2)CC1
Procedure, shortened: as §1

[9] = compound: CN1CCN(CCOc2cc(OC3CCOCC3)c3c(Nc4c(Cl)ccc5c4OCO5)ncnc3c2)CC1 [saracatinib]
Procedure, shortened: as §1

[10] = compound: CN1CCN(c2nc(C3=C(c4c[nH]c5ccccc45)C(=O)NC3=O)c3ccccc3n2)CC1 [sotrastaurin]
Procedure, shortened: as §1

Measured: log2 fold change

CIAPIN1 (UniProt Q6FI81)
inactive: [1] -0.003 | [2] 0 | [3] -0.02 | [4] 0.037 | [5] 0.016 | [6] -0.016 | [7] -0.064 | [8] 0.039 | [9] 0.011 | [10] 0.009

CHM (UniProt P24386)
inactive: [1] -0.015 | [2] 0.07 | [3] 0.04 | [4] 0.031 | [5] -0.036 | [6] 0.009 | [7] 0.004 | [8] 0 | [9] -0.031 | [10] 0.035

CLPP (UniProt Q16740)
inactive: [1] -0.016 | [2] 0.009 | [3] 0.143 | [4] -0.032 | [5] -0.009 | [6] 0.007 | [7] -0.046 | [8] -0.021 | [9] -0.01 | [10] -0.002

CHAMP1 (UniProt Q96JM3)
inactive: [1] 0.051 | [2] -0.019 | [3] -0.004 | [4] 0.053 | [5] -0.02 | [6] -0.005 | [7] 0.05 | [8] -0.006 | [9] 0.009 | [10] -0.009

CLASP1 isoform 4 (UniProt Q7Z460)
inactive: [1] 0.272

CIP2A (UniProt Q8TCG1)
inactive: [1] 0.036 | [2] 0.019 | [3] 0.153 | [4] 0.001 | [5] -0.086 | [6] 0.037 | [7] -0.07 | [8] -0.075 | [9] 0.009 | [10] 0.014

CHCHD10 (UniProt Q8WYQ3)
inactive: [1] 0 | [2] 0.028 | [3] 0.006 | [4] 0.041 | [5] -0.009 | [6] 0.129 | [7] 0.196 | [8] -0.117 | [9] 0.014

CHMP6 (UniProt Q96FZ7)
inactive: [1] -0.031 | [2] 0.034 | [3] 0.028 | [4] -0.022 | [5] -0.041 | [6] -0.027 | [7] 0.059 | [8] -0.03 | [9] 0.028 | [10] -0.075

CLYBL (UniProt Q8N0X4)
inactive: [1] 0.012 | [2] -0.101 | [3] 0.008 | [4] -0.01 | [5] -0.033 | [6] 0.11 | [7] 0.045 | [8] -0.024 | [9] 0.031 | [10] -0.116

CHMP5 (UniProt Q9NZZ3)
inactive: [1] 0 | [2] 0.003 | [3] -0.008 | [4] 0.007 | [5] 0.025 | [6] 0 | [7] -0.045 | [8] 0.023 | [9] -0.02 | [10] -0.015

CKMT2 (UniProt P17540)
inactive: [1] 0.117 | [2] 0.021 | [3] -0.011 | [4] 0.038 | [5] 0.037 | [6] -0.035 | [7] 0.306 | [8] 0.159 | [9] -0.032 | [10] 0.022

CHD2 (UniProt O14647)
inactive: [1] 0.185 | [2] 0.107 | [3] 0.12 | [4] -0.09 | [5] -0.113 | [6] 0.031 | [7] -0.129 | [8] 0.055 | [9] -0.029 | [10] 0.017

CHD1 (UniProt O14646)
inactive: [1] -0.04 | [2] 0.01 | [3] -0.006 | [4] -0.12 | [5] -0.035 | [6] 0.061 | [7] 0.007 | [8] 0.04 | [9] -0.136 | [10] 0.059

CLCN3 isoform 2 (UniProt P51790)
inactive: [1] -0.015 | [2] 0.052 | [3] -0.004 | [4] 0.003 | [5] -0.022 | [6] -0.024 | [7] -0.039 | [8] 0.013 | [9] -0.018 | [10] 0.054

CLASRP (UniProt Q8N2M8)
inactive: [1] 0.014 | [2] 0.004 | [3] 0.03 | [4] 0.005 | [5] -0.042 | [6] -0.105 | [7] 0.125 | [8] 0.011 | [9] 0.02 | [10] 0.056

CLIC2 (UniProt O15247)
inactive: [1] -0.004 | [2] 0.007 | [3] -0.039 | [4] -0.014 | [5] -0.011 | [6] -0.006 | [7] -0.064 | [8] -0.005 | [9] 0.015 | [10] 0

CHIC2 (UniProt Q9UKJ5)
inactive: [1] -0.016 | [2] -0.014 | [3] 0.002 | [4] 0.105 | [5] 0.065 | [6] -0.02 | [7] -0.076 | [8] 0.076 | [9] -0.045

CLIC4 (UniProt Q9Y696)
inactive: [1] -0.031 | [2] -0.007 | [3] -0.019 | [4] -0.026 | [5] 0.027 | [6] -0.048 | [7] -0.072 | [8] 0.099 | [9] -0.023 | [10] 0.006

CKB (UniProt P12277)
inactive: [1] -0.027 | [2] 0.008 | [3] -0.018 | [4] -0.06 | [5] -0.012 | [6] 0.012 | [7] 0.068 | [8] -0.021 | [9] 0.011 | [10] -0.011

CLTA (UniProt P09496)
inactive: [1] -0.046 | [2] -0.029 | [3] 0.164 | [4] -0.044 | [5] 0 | [6] 0.027 | [7] 0.018 | [8] 0.063 | [9] -0.008 | [10] -0.027

CLASP1 (UniProt Q7Z460)
inactive: [1] 0.025 | [2] 0.013 | [3] 0.048 | [4] -0.03 | [5] -0.018 | [6] 0.039 | [7] -0.043 | [8] 0.042 | [9] 0.028 | [10] -0.022

CLNS1A (UniProt P54105)
inactive: [1] 0.005 | [2] 0.022 | [3] -0.046 | [4] 0.058 | [5] 0.019 | [6] -0.044 | [7] -0.016 | [8] 0.043 | [9] -0.026 | [10] 0.018

CHCHD2 (UniProt Q9Y6H1)
inactive: [1] 0.076 | [2] -0.025 | [3] 0.011 | [4] 0.102 | [5] 0.086 | [6] 0.108 | [7] 0.16 | [8] -0.094 | [9] -0.011 | [10] 0.054

CNBP isoform 4 (UniProt P62633)
inactive: [1] -0.05 | [2] 0.045 | [3] -0.032 | [4] -0.118 | [5] 0.086 | [6] 0.034 | [7] -0.063 | [8] 0.039 | [9] 0.17 | [10] -0.334

CHKB (UniProt Q9Y259)
inactive: [1] -0.068 | [2] 0.014 | [3] -0.029 | [4] 0.201 | [5] 0.018 | [6] 0.068 | [7] 0.019 | [8] 0.047 | [9] 0.06 | [10] 0.047

Two entries drawn at random from the list so far:
CHKB (UniProt Q9Y259)
inactive: [1] -0.068 | [2] 0.014 | [3] -0.029 | [4] 0.201 | [5] 0.018 | [6] 0.068 | [7] 0.019 | [8] 0.047 | [9] 0.06 | [10] 0.047

CLNS1A (UniProt P54105)
inactive: [1] 0.005 | [2] 0.022 | [3] -0.046 | [4] 0.058 | [5] 0.019 | [6] -0.044 | [7] -0.016 | [8] 0.043 | [9] -0.026 | [10] 0.018

Next part

CKS1B (UniProt P61024)
inactive: [1] -0.047 | [2] -0.029 | [3] 0.029 | [4] -0.031 | [5] -0.018 | [6] -0.017 | [8] -0.268 | [9] 0.044 | [10] 0.025
active: [7] 0.391

CLEC16A (UniProt Q2KHT3)
inactive: [1] 0.003 | [2] -0.023 | [3] 0.014 | [4] 0.001 | [5] 0.023 | [6] -0.007 | [7] 0.157 | [8] -0.14 | [9] 0.004 | [10] 0.016

CMBL (UniProt Q96DG6)
inactive: [1] -0.053 | [2] -0.027 | [3] -0.026 | [4] 0.081 | [5] 0.183 | [6] 0.004 | [7] -0.174 | [8] 0.129 | [9] -0.016 | [10] -0.015
